Source: PubChem BioAssay AID504834 (National Center for Advancing Translational Sciences (NCATS), 2011)
In all, about 320,000 compounds went through this assay and about 22,000 (6.9%) were called active. The shares of active, inactive and inconclusive entries below differ from those in the screen. Calls follow the shape of the dose curve; as a rule, active = well fitted inhibition curve with a large enough effect; inconclusive = small, poorly fitted or top-dose-only effect, or another doubt; inactive = no such curve, though single readings can be large or run the other way. A potency beside an inconclusive call is a rough fit, not a confirmed value.

Test: Primary qHTS for delayed death inhibitors of the malarial parasite plastid, 96 hour incubation
Conditions: P. falciparum luciferase reporter growth; series mostly up to 28.7 µM; activity change, negative = inhibition: at the top concentration
Summary of the method: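 Luminescence readout: decreased luciferase signal marks inhibited growth of reporter-expressing P. falciparum in infected red cells (2% hematocrit, 0.05% parasitemia final), exposed to compound two generations (96 h, 37 C, 5% CO2).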
% is scaled to controls: 0 for no effect and ±100 for the full control effect; potency is read from the fitted curve at half-maximal effect.

SMILES	Potency	activity change, negative = inhibition
COC(=O)C1=C(C)Nc2sc(C(N)=O)c(N)c2C1c1ccncc1 (stereo not drawn)	inconclusive: 14.7 µM [inhibitor, partial curve, poor fit]	
CCOC(=O)c1ccc(NC(=O)CSc2nc3c(c(=O)n2-c2ccccc2OC)SCC3)cc1	inconclusive: 1.65 µM [inhibitor, full curve]	
COc1ccc(-c2cc(=O)oc3c(C)c(OCC(=O)N(C)C)ccc23)cc1	inconclusive: 8.28 µM [inhibitor, partial curve, poor fit]	
COc1ccccc1CC(=O)Nc1ccc2c(C)cc(=O)oc2c1		inactive: -14.7%
O=C1CSc2ccc(C(=O)NCC(c3ccco3)N3CCCCC3)cc2N1 (stereo not drawn)	inconclusive: 0.738 µM [inhibitor, full curve, poor fit]	
CCOC(=O)c1ccc(NC(=O)CSc2nnnn2C2CCCCC2)cc1		inactive: 294%
COCCNC(=O)CN1CCN(C(c2ccccc2)c2ccccc2)CC1	inconclusive: 18.5 µM [inhibitor, single point]	
COC(=O)c1ccccc1NC(=O)CN(c1ccc(OC)cc1)S(C)(=O)=O	inconclusive: 3.7 µM [inhibitor, full curve, poor fit]	
C=CCn1c(SCC(=O)N2CCCCCC2)nc2ccccc2c1=O	inconclusive: 16.5 µM [inhibitor, partial curve, poor fit]	
COCCNC(=O)/C(C#N)=C/c1cc(C)n(C2CCCCC2)c1C		inactive: 0%
O=C(Nc1nc2ccc(S(=O)(=O)N3CCCCC3)cc2s1)C1CCCO1 (stereo not drawn)		inactive: 10.4%
O=C1CCc2cc(S(=O)(=O)NCc3ccccc3Cl)ccc2N1	inconclusive: 13.1 µM [inhibitor, single point]	
COc1ccc(C2C=C(Nc3ccccc3)C(=O)N2c2ccccc2)cc1OC (stereo not drawn)	inconclusive: 0.329 µM [inhibitor, full curve, poor fit]	
Cc1ccc2oc(=O)c3cnn(CC(=O)N4CCc5ccccc5C4)c3c2c1	active: 2.62 µM	
COc1ccc(NC(=O)CC2C(=O)N(C)C(=S)N2Cc2cccs2)cc1 (stereo not drawn)	inconclusive: 18.5 µM [inhibitor, single point]	
CCOc1ccccc1N(C(=O)c1ccco1)C(C(=O)NC1CCCC1)c1cccs1 (stereo not drawn)	inconclusive: 8.28 µM [inhibitor, partial curve]	
CC(=O)c1ccc(Oc2cc(C(F)(F)F)cnc2C(N)=O)cc1	inconclusive: 2.94 µM [inhibitor, single point]	
CC(Sc1nnc(NC2CCCCC2)s1)C(=O)N1CCOCC1 (stereo not drawn)	inconclusive: 8.28 µM [inhibitor, partial curve]	
CC(C)[C@H](NC(=O)N1CCn2c1nc1ccccc12)C(=O)NCc1ccccc1Cl	inconclusive: 16.5 µM [inhibitor, partial curve, poor fit]	
COc1ccccc1C(=O)Nc1ccc2oc(-c3ccc(F)cc3)nc2c1	active: 10.4 µM	
CC(=O)c1ccc(N2CCN(C(=O)C(=O)c3cn(CC(=O)N4CCCCCC4)c4ccccc34)CC2)cc1	inconclusive: 11.7 µM [inhibitor, single point]	
CCc1ccc(Oc2coc3cc(OC(=O)c4cc5ccccc5oc4=O)ccc3c2=O)cc1	inconclusive: 5.22 µM [inhibitor, partial curve, poor fit]	
COc1cccc(NC(=O)CCN2CCOCC2)c1	inconclusive: 13.1 µM [inhibitor, single point]	

Pulled one by one from the list above, 2 records:
SMILES	Potency	activity change, negative = inhibition
CC(C)[C@H](NC(=O)N1CCn2c1nc1ccccc12)C(=O)NCc1ccccc1Cl	inconclusive: 16.5 µM [inhibitor, partial curve, poor fit]	
O=C1CCc2cc(S(=O)(=O)NCc3ccccc3Cl)ccc2N1	inconclusive: 13.1 µM [inhibitor, single point]	

The list continues.

SMILES	Potency	activity change, negative = inhibition
COc1ccc(-c2csc(NC(=S)NC(=O)c3ccco3)n2)cc1Br	inconclusive: 18.5 µM [inhibitor, single point]	
O=c1[nH]c(C2CCN(S(=O)(=O)/C=C/c3ccccc3)CC2)nc2c1nnn2Cc1ccc(F)cc1	inconclusive: 5.22 µM [inhibitor, partial curve]	
CCCCN=Cc1sc2ccc(OCC)cc2c1O	inconclusive: 18.5 µM [inhibitor, single point]	
COc1ccc(-c2cc(C(F)F)n3ncc(C(=O)N4CCN(C)CC4)c3n2)cc1	inconclusive: 18.5 µM [inhibitor, partial curve, poor fit]	
Cc1ccc(S(=O)(=O)Nc2ccc(C(=O)Nc3cc(C)on3)cc2)cc1		inactive: -12.4%
COc1cccc(NC(=O)C(C#N)Cc2ccncc2)c1 (stereo not drawn)	inconclusive: 14.7 µM [inhibitor, single point]	
COc1ccc(N2CCN(S(=O)(=O)c3ccc4oc(=O)ccc4c3)CC2)cc1	inconclusive: 5.86 µM [inhibitor, partial curve, poor fit]	
CNc1snc(C)c1C(=O)OCC(=O)c1ccc(OC)c(F)c1		inactive: -7.82%
O=C(CNCc1cccs1)Nc1ccc(OC(F)(F)F)cc1	active: 10.4 µM	
CCn1cc(CN(C)C(=O)/C=C/c2ccc([N+](=O)[O-])cc2)c(C)n1	inconclusive: 4.15 µM [inhibitor, single point]	
CC(=O)N1CCc2ccc(S(=O)(=O)N3CC(C)OC(C)C3)cc21 (stereo not drawn)	inconclusive: 18.5 µM [inhibitor, single point]	
O=C(NNS(=O)(=O)c1cccc(Cl)c1Cl)c1cccc(S(=O)(=O)N2CCOCC2)c1		inactive: 16.4%
CCN(CC)C(=O)C[n+]1ccc(C(N)=O)cc1	inconclusive: 18.5 µM [inhibitor, single point]	
COc1ccc(CCCc2nnc(SCC(=O)NN)o2)cc1	inconclusive: 18.5 µM [inhibitor, single point]	
O=C(NCc1ccco1)c1cc(-c2ccc(Cl)cc2)on1		inactive: -7.62%
COc1ccc(/C=N\NC(=O)C2COc3ccccc3O2)cc1O (stereo not drawn)		inactive: 5.92%
COc1ccc(Cc2nc3ccc(C(=O)N4CCCC4)cc3o2)cc1		inactive: -85.5%
CCCS(=O)(=O)N1CCCC(C(=O)NC(C)c2ccc3c(c2)OCCO3)C1 (stereo not drawn)	inconclusive: 0.0037 µM [inhibitor, full curve, poor fit]	
CCOc1ccc(C(=O)OCC(=O)c2c(N)n(C)c(=O)n(C)c2=O)cc1OCC	inconclusive: 0.0828 µM [inhibitor, full curve]	
Cc1cccc(C)c1NC(=O)CNC(=O)c1ccccc1		inactive: 1.15%
CC(=O)c1c(N2CCOCC2)nc(=S)n(Cc2ccccc2)c1C	active: 0.329 µM	
COc1ccc(C/C(N)=N/OC(=O)c2ccco2)cc1OC	inconclusive: 10.4 µM [inhibitor, single point]	
CCCn1c(SCC(=O)NC23CC4CC(CC(C4)C2)C3)n[nH]c1=O	inconclusive: 0.0465 µM [inhibitor, full curve, poor fit]	

Given with bars between the fields: part of the list above.
SMILES | Potency | activity change, negative = inhibition
O=c1[nH]c(C2CCN(S(=O)(=O)/C=C/c3ccccc3)CC2)nc2c1nnn2Cc1ccc(F)cc1 | inconclusive: 5.22 µM [inhibitor, partial curve] | 
CCCCN=Cc1sc2ccc(OCC)cc2c1O | inconclusive: 18.5 µM [inhibitor, single point] | 

The results go on.

SMILES	Potency	activity change, negative = inhibition
OCc1ccc(OCCCOc2cccc3cccnc23)cc1	inconclusive: 20.8 µM [inhibitor, single point]	
CC(C)CNC(=O)CSc1nc(-c2cccs2)cc(C(F)(F)F)n1		inactive: 8.37%
COc1ccc(/C=C/C(=O)NCCOc2ccccc2OC)cc1	inconclusive: 18.5 µM [inhibitor, single point]	
CN(Cc1ccccn1)Cc1nc(-c2ccc(Cl)cc2)no1	inconclusive: 13.1 µM [inhibitor, single point]	
Cc1cccc(Nc2nnc(SCC(=O)c3ccc(O)cc3O)s2)c1	inconclusive: 0.928 µM [inhibitor, full curve]	
CC(C)c1ccc(N(C(=O)c2ccco2)C(C(=O)NC2CCCC2)c2cccnc2)cc1 (stereo not drawn)	inconclusive: 7.38 µM [inhibitor, partial curve, poor fit]	
Cc1ccc(C(=O)N2CCN(S(=O)(=O)N3CCCCCC3)CC2)cc1		inactive: -4.4%
CCOC(=O)n1ccc(C(=O)Nc2ccccc2F)n1	inconclusive: 10.4 µM [inhibitor, partial curve, poor fit]	
Cc1ccc(NC(=O)CCNC(=O)c2ccccc2Cl)nc1	inconclusive: 18.5 µM [inhibitor, single point]	
Cc1ccc(/C(O)=C2\C(=O)C(=O)N(C)C2c2cccc([N+](=O)[O-])c2)cc1 (stereo not drawn)		inactive: -19.7%
COC(=O)c1cc(NC(=S)NCc2ccc(Cl)cc2)cc(C(=O)OC)c1	inconclusive: 18.5 µM [inhibitor, single point]	
CC(Sc1nnc(C2CC2)n1C1CC1)C(=O)N(C)Cc1cccc(F)c1 (stereo not drawn)	inconclusive: 5.86 µM [inhibitor, single point]	
CCOC(=O)C(CC)Sc1nc2c(cnn2-c2ccc(F)cc2)c(=O)[nH]1 (stereo not drawn)	inconclusive: 18.5 µM [inhibitor, single point]	
Cc1cc(C)c(OC2(c3ccccc3)OC(=O)c3ccccc32)c(C)c1 (stereo not drawn)	inconclusive: 0.522 µM [inhibitor, full curve, poor fit]	
O=C(CSc1nc2ccccc2c(=O)n1CC1CCCO1)Nc1ccccc1Cl (stereo not drawn)	inconclusive: 18.5 µM [inhibitor, single point]	
COc1ccc(CN(C(=O)c2cc3ccccc3oc2=O)C2CCCCC2)cc1OC	inconclusive: 10.4 µM [inhibitor, single point]	
Oc1c(Br)cc(/C=N/NC(=S)NCC2CCCO2)cc1Br (stereo not drawn)	inconclusive: 11.7 µM [inhibitor, partial curve]	
COc1cc(/C=N/O)cc(Cl)c1OC		inactive: 29.6%
CCCCN(C)CCCNC(=O)CCn1nc(-c2ccccc2)ccc1=O	active: 0.117 µM	
CCc1ccc(N=Nc2ccc(O)c3[nH]cnc23)cc1		inactive: 1.8%
Cc1c(CCC(=O)N[C@@H](CC(C)C)C(=O)O)c(=O)oc2c(C)c3oc4c(c3cc12)CCCC4	inconclusive: 3.7 µM [inhibitor, full curve]	
NC(=S)Nc1cc2ccccc2c2ccccc12	inconclusive: 2.94 µM [inhibitor, partial curve, poor fit]	
